# Some of the results follow.
# B1: PX14343F-bfa-562-20-562 (Bacteroides fragilis) (protein)
# chain: CDDFLDSFPQDTVTNENFWKSKEDADKVLVDIYASLLPKDAIFFDEAMSDNAYLVWDWWGGAQQVANGSYTTSGEIPTNRWNGSYEVIRKCWFLLEGIEKIEDISEQDKNKIIGETYFMLAYNYYVLTSYFGDVPLVTKTLAIPESKQLVRTPKAEVVDYAINKLKEAAVMLEGLSQEKGRVTADACRFLIARMYLYNGDYSNVLETVKLLEGKYQLYREGDTPYEDLFSGVAENSCEVILSVVCDKRVGEIYTSHGGNGIMLLKGITGEDPYRGVTPSGSLVDAYPMADGRLIHEAGSSYDPKKPYEGRDPRFYQSIVYPTGQIKYLDVETGTVKERLYDPEDPTTVPEHQYNYSQPSATGYMWNKYIDYSVYAMNSVWDCTNDIIVFRYADVLLMKAEALLQTKGESAKEEVCNLIDQLRDRCSCGRVHRENYNSKDELMELLKNERRIELANEGLRYMDLIRWKDAEKNTIVTGVGLTGQMYGAYMRKDGVGKDDKTVDVDNTPRRYIETRYFNASKGYLFPIPQKERDLNPNLTQNPNW
# Assays:
# Assay in all cases: glycan array binding signal (z-score within array); higher = stronger binding
# Conditions in all cases: glycan notation: IUPAC condensed, linker removed
# Gal(b1-4)Glc = target: Gal(b1-4)Glc
# How it was run: (§1)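 Glycan array data were curated from 3228 arrays in the Consortium for Functional Glycomics database and kept only where the protein sequence was available. Glycan names were converted to IUPAC-condensed notation, and columns mapping to the same glycan were averaged. The binding signal is a within-array Z-score, averaged across arrays of the same protein sequence at different concentrations or buffers and across linkers. Negative Z-scores can be read as non-binding.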
# Gal(b1-4)Glc6S = target: Gal(b1-4)Glc6S
# How it was run: as §1
# Gal(b1-4)GlcNAc = target: Gal(b1-4)GlcNAc
# How it was run: as §1
# [1] = target: Gal(b1-4)GlcNAc(a1-6)Gal(b1-4)GlcNAc
# How it was run: as §1
# Gal(b1-4)GlcNAc(b1-2)Man = target: Gal(b1-4)GlcNAc(b1-2)Man
# How it was run: as §1
# [2] = target: Gal(b1-4)GlcNAc(b1-2)Man(a1-3)Man(b1-4)GlcNAc(b1-4)GlcNAc
# How it was run: as §1
# [3] = target: Gal(b1-4)GlcNAc(b1-2)Man(a1-3)[Gal(b1-4)GlcNAc(b1-2)Man(a1-6)]Man(b1-4)GlcNAc(b1-4)GlcNAc
# How it was run: as §1
# [4] = target: Gal(b1-4)GlcNAc(b1-2)Man(a1-3)[Gal(b1-4)GlcNAc(b1-2)Man(a1-6)]Man(b1-4)GlcNAc(b1-4)[Fuc(a1-6)]GlcNAc
# How it was run: as §1
# [5] = target: Gal(b1-4)GlcNAc(b1-2)Man(a1-3)[Gal(b1-4)GlcNAc(b1-2)Man(a1-6)][Gal(b1-4)GlcNAc(b1-4)]Man(b1-4)GlcNAc(b1-4)[Fuc(a1-6)]GlcNAc
# How it was run: as §1
# [6] = target: Gal(b1-4)GlcNAc(b1-2)Man(a1-3)[Gal(b1-4)GlcNAc(b1-2)Man(a1-6)][GlcNAc(b1-4)]Man(b1-4)GlcNAc(b1-4)[Fuc(a1-6)]GlcNAc
# How it was run: as §1
# [7] = target: Gal(b1-4)GlcNAc(b1-2)Man(a1-3)[GlcNAc(b1-2)Man(a1-6)]Man(b1-4)GlcNAc(b1-4)GlcNAc
# How it was run: as §1
# [8] = target: Gal(b1-4)GlcNAc(b1-2)Man(a1-3)[GlcNAc(b1-4)][Gal(b1-4)GlcNAc(b1-2)Man(a1-6)]Man(b1-4)GlcNAc(b1-4)GlcNAc
# How it was run: as §1
# [9] = target: Gal(b1-4)GlcNAc(b1-2)Man(a1-3)[Man(a1-6)]Man(b1-4)GlcNAc(b1-4)GlcNAc
# How it was run: as §1
# [10] = target: Gal(b1-4)GlcNAc(b1-2)Man(a1-6)Man(b1-4)GlcNAc(b1-4)GlcNAc
# How it was run: as §1
# [11] = target: Gal(b1-4)GlcNAc(b1-2)Man(a1-6)[GlcNAc(b1-2)Man(a1-3)]Man(b1-4)GlcNAc(b1-4)GlcNAc
# How it was run: as §1
# [12] = target: Gal(b1-4)GlcNAc(b1-2)Man(a1-6)[Man(a1-3)]Man(b1-4)GlcNAc(b1-4)GlcNAc
# How it was run: as §1
# [13] = target: Gal(b1-4)GlcNAc(b1-2)[Gal(b1-4)GlcNAc(b1-4)]Man(a1-3)[Gal(b1-4)GlcNAc(b1-2)Man(a1-6)]Man(b1-4)GlcNAc(b1-4)GlcNAc
# How it was run: as §1
# [14] = target: Gal(b1-4)GlcNAc(b1-2)[Gal(b1-4)GlcNAc(b1-4)]Man(a1-3)[Gal(b1-4)GlcNAc(b1-2)[Gal(b1-4)GlcNAc(b1-6)]Man(a1-6)]Man(b1-4)GlcNAc(b1-4)GlcNAc
# How it was run: as §1
# [15] = target: Gal(b1-4)GlcNAc(b1-2)[Gal(b1-4)GlcNAc(b1-4)]Man(a1-3)[GlcNAc(b1-4)][Gal(b1-4)GlcNAc(b1-2)Man(a1-6)]Man(b1-4)GlcNAc(b1-4)GlcNAc
# How it was run: as §1
# [16] = target: Gal(b1-4)GlcNAc(b1-2)[Gal(b1-4)GlcNAc(b1-4)]Man(a1-3)[GlcNAc(b1-4)][Gal(b1-4)GlcNAc(b1-2)[Gal(b1-4)GlcNAc(b1-6)]Man(a1-6)]Man(b1-4)GlcNAc(b1-4)GlcNAc
# How it was run: as §1
# [17] = target: Gal(b1-4)GlcNAc(b1-2)[Gal(b1-4)GlcNAc(b1-6)]Man(a1-6)[Gal(b1-4)GlcNAc(b1-2)Man(a1-3)]Man(b1-4)GlcNAc(b1-4)GlcNAc
# How it was run: as §1
# [18] = target: Gal(b1-4)GlcNAc(b1-2)[Gal(b1-4)GlcNAc(b1-6)]Man(a1-6)[Gal(b1-4)GlcNAc(b1-2)Man(a1-3)]Man(b1-4)GlcNAc(b1-4)[Fuc(a1-6)]GlcNAc
# How it was run: as §1
# [19] = target: Gal(b1-4)GlcNAc(b1-2)[Gal(b1-4)GlcNAc(b1-6)]Man(a1-6)[GlcNAc(b1-4)][Gal(b1-4)GlcNAc(b1-2)Man(a1-3)]Man(b1-4)GlcNAc(b1-4)GlcNAc
# How it was run: as §1
# [20] = target: Gal(b1-4)GlcNAc(b1-2)[Gal(b1-4)GlcNAc(b1-6)]Man(a1-6)[GlcNAc(b1-4)][Gal(b1-4)GlcNAc(b1-2)[Gal(b1-4)GlcNAc(b1-4)]Man(a1-3)]Man(b1-4)GlcNAc(b1-4)[Fuc(a1-6)]GlcNAc
# How it was run: as §1
# [21] = target: Gal(b1-4)GlcNAc(b1-3)Gal(b1-3)GalNAc
# How it was run: as §1
# [22] = target: Gal(b1-4)GlcNAc(b1-3)Gal(b1-3)GlcNAc
# How it was run: as §1
# [23] = target: Gal(b1-4)GlcNAc(b1-3)Gal(b1-4)Glc
# How it was run: as §1
# [24] = target: Gal(b1-4)GlcNAc(b1-3)Gal(b1-4)GlcNAc
# How it was run: as §1
# [25] = target: Gal(b1-4)GlcNAc(b1-3)Gal(b1-4)GlcNAc(b1-2)Man(a1-3)[Gal(b1-4)GlcNAc(b1-3)Gal(b1-4)GlcNAc(b1-2)Man(a1-6)]Man(b1-4)GlcNAc(b1-4)GlcNAc
# How it was run: as §1
# [26] = target: Gal(b1-4)GlcNAc(b1-3)Gal(b1-4)GlcNAc(b1-2)Man(a1-3)[Gal(b1-4)GlcNAc(b1-3)Gal(b1-4)GlcNAc(b1-2)Man(a1-6)]Man(b1-4)GlcNAc(b1-4)[Fuc(a1-6)]GlcNAc
# How it was run: as §1
binder,measurement,setting,value
B1,glycan array binding signal (z-score),Gal(b1-4)Glc,-0.415
same,glycan array binding signal (z-score),Gal(b1-4)Glc6S,0.438
same,glycan array binding signal (z-score),Gal(b1-4)GlcNAc,-0.413
same,glycan array binding signal (z-score),[1],-0.262
same,glycan array binding signal (z-score),Gal(b1-4)GlcNAc(b1-2)Man,0.844
same,glycan array binding signal (z-score),[2],-0.717
same,glycan array binding signal (z-score),[3],-0.901
same,glycan array binding signal (z-score),[4],-0.507
same,glycan array binding signal (z-score),[5],-0.394
same,glycan array binding signal (z-score),[6],-0.937
same,glycan array binding signal (z-score),[7],-0.321
same,glycan array binding signal (z-score),[8],-0.235
same,glycan array binding signal (z-score),[9],0.082
same,glycan array binding signal (z-score),[10],-0.546
same,glycan array binding signal (z-score),[11],0.317
same,glycan array binding signal (z-score),[12],0.332
same,glycan array binding signal (z-score),[13],-0.599
same,glycan array binding signal (z-score),[14],-0.168
same,glycan array binding signal (z-score),[15],0.08
same,glycan array binding signal (z-score),[16],0.047
same,glycan array binding signal (z-score),[17],0.143
same,glycan array binding signal (z-score),[18],-0.035
same,glycan array binding signal (z-score),[19],-0.358
same,glycan array binding signal (z-score),[20],0.127
same,glycan array binding signal (z-score),[21],0.076
same,glycan array binding signal (z-score),[22],0.748
same,glycan array binding signal (z-score),[23],0.924
same,glycan array binding signal (z-score),[24],-0.499
same,glycan array binding signal (z-score),[25],1.15
same,glycan array binding signal (z-score),[26],0.869

# 2 successive entries from above, quoted:
binder,measurement,setting,value
B1,glycan array binding signal (z-score),[19],-0.358
same,glycan array binding signal (z-score),[20],0.127

# From the supplement of paper PMC8728848
